In publication doi:10.1101/2021.01.08.425994:
These are yes or no findings as the source states them, for the method shown. Binding seen in cells or lysates may run through a third protein. Some binding calls cover weakened binding; strength is not graded here.

Sequences of proteins named here, by UniProt entry; tags and fusion partners are left off. A change or cut given only in a name is not applied to a line headed by its entry.
UniProt O08785: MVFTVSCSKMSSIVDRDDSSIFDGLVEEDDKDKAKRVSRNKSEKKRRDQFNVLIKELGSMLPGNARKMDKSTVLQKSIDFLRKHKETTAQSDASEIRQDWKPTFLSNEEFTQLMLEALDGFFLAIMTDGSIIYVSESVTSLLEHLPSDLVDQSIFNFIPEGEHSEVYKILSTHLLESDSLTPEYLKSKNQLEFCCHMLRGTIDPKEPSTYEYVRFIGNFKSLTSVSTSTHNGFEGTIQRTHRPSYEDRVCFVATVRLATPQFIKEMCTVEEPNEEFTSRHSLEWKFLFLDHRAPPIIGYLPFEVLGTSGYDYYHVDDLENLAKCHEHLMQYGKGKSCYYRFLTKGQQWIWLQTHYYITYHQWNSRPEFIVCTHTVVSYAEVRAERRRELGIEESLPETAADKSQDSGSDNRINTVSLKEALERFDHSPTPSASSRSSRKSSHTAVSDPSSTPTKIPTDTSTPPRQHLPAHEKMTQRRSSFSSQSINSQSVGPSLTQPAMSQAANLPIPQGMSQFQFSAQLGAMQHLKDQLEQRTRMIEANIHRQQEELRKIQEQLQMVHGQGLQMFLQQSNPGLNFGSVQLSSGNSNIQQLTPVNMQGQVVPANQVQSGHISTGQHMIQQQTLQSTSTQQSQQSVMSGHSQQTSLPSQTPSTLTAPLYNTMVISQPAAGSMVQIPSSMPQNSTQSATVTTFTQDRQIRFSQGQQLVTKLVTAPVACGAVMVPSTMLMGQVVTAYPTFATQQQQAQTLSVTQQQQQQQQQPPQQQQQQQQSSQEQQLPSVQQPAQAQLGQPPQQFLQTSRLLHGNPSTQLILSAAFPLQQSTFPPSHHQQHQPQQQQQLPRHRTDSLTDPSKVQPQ
UniProt Q16526: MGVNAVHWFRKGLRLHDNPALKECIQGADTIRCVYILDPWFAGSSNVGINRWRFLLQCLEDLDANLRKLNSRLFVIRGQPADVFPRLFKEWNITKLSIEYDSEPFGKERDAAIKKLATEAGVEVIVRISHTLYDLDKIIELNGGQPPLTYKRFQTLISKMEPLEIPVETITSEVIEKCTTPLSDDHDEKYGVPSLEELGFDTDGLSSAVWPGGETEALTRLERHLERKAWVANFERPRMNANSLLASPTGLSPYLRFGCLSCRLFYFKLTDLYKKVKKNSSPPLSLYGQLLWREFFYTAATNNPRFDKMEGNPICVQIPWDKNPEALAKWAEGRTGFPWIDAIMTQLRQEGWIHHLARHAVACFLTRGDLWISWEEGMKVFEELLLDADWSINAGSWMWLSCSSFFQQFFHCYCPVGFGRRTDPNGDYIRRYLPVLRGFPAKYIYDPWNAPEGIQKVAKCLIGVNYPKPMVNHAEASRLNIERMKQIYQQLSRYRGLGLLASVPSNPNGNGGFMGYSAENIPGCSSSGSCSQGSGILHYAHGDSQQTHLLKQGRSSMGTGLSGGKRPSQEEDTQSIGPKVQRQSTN

Molecular target: CLOCK:BMAL1 heterodimer (overexpressed) (not stated | mouse) (UniProt O08785)
Assay: co-IP

In the case of “human CRY1 D307H (from UniProt Q16526 1-586)”, the binding is reported as “binds weakly”.
